Measurements from US20170001953A1, “FUMARATE COMPOUNDS, PHARMACEUTICAL COMPOSITIONS THEREOF, AND METHODS OF USE” (priority 2015, published 2017).
Some entries share one result that the patent states for a list of compounds.

Legend:
[1] = Stability of fumarate compounds in PBS buffer; format: physicochemical; details: PBS 50 mM, pH 7.0 to 7.4, 20 to 37° C., 60 min, HPLC
porcine liver esterase = experiment: Hydrolysis of fumarate compounds in vitro by porcine liver esterase; format: in vitro ADME; details: porcine liver esterase in PBS buffer pH 7.0 to 8.0, 20 to 37° C., ca. 24 h, HPLC

Row | Structure (SMILES) | stable (stability in PBS buffer) [1] [%] | converted to MHF, monoester fumarates and/or fumaric acid (porcine liver esterase) [%]
1 | CC(C)OC(=O)/C=C/C(=O)OCCCNC(=O)OC(C)(C)C [Compound 40, O1-[3-(tert-Butoxycarbonylamino)propyl] O4-isopropyl (E)-but-2-enedioate] | > 85 | > 25
2 | CC(C)OC(=O)/C=C/C(=O)OCCCNC(=O)OCc1ccccc1 [Compound 41, O1-[3-(Benzyloxycarbonylamino)propyl] O4-isopropyl (E)-but-2-enedioate] | > 85 | > 25
3 | CC(C)OC(=O)/C=C/C(=O)OCCCNC(=O)OC(C)C [Compound 42, O1-[3-(Isopropoxycarbonylamino)propyl] O4-isopropyl (E)-but-2-enedioate] | > 85 | > 25
